Test results from patent publication US20140120060A1, “TREATMENT OF RHEUMATOID ARTHRITIS AND ASTHMA USING PI3 KINASE INHIBITORS” (INFINITY PHARMACEUTICALS, INC., priority 2012, published 2014).
For at least one compound, name, drawing or mass did not settle the structure.

System: developing adjuvant arthritis
Assay: Freund's complete adjuvant induced rat model of arthritis
Assay type: in vivo
Conditions: reference treatment, dose not stated
Excerpt: Freund's complete adjuvant induced arthritis in the rat is an experimental model of polyarthritis that has been widely used for nonclinical testing of numerous anti-arthritic agents that are either under nonclinical or clinical investigation, or are currently used as therapeutics in this disease.

C[C@@H]1C[C@H]2[C@@H]3CCC4=CC(=O)C=C[C@]4(C)[C@@]3(F)[C@@H](O)C[C@]2(C)[C@@]1(O)C(=O)CO [dexamethasone, reference compound]
final paw weights vs vehicle treated controls: significantly and dose-responsively reduced toward normal
